These are yes or no findings as the source states them, for the method shown. Binding seen in cells or lysates may run through a third protein. Some binding calls cover weakened binding; strength is not graded here. Sequences can lack the tags named with a protein. Each block holds one binder with its values, some of them ahead of it.
Experiments:
Test in all cases: co-IP; HEK293 cells co-transfected with bait and candidate (GFP-tagged bait with HA- or HA-Flag-tagged candidate, GFP-TRAP beads; or HA-Flag-tagged bait with GFP-tagged candidate, anti-Flag antibody); lysates treated with RNase A/T1; Western blot with anti-HA and anti-GFP
[1] = molecular target: T1, Hrp48 (tagged, expressed in HEK293 cells) (Drosophila melanogaster) (UniProt P48809)
T1 sequence: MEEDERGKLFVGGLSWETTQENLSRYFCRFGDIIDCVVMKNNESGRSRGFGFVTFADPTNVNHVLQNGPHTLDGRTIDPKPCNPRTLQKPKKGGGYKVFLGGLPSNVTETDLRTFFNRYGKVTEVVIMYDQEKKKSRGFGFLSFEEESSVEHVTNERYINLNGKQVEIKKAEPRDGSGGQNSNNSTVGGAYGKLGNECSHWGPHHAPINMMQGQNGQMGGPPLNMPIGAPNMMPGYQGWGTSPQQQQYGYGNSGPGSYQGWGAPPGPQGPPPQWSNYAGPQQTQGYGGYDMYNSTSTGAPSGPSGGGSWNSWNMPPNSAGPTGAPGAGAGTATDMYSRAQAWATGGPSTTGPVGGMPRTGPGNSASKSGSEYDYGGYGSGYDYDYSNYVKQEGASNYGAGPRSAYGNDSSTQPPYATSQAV

Protein sequences, listed by entry. Tags and fused reporters are not part of them.
UniProt Q9VHS8: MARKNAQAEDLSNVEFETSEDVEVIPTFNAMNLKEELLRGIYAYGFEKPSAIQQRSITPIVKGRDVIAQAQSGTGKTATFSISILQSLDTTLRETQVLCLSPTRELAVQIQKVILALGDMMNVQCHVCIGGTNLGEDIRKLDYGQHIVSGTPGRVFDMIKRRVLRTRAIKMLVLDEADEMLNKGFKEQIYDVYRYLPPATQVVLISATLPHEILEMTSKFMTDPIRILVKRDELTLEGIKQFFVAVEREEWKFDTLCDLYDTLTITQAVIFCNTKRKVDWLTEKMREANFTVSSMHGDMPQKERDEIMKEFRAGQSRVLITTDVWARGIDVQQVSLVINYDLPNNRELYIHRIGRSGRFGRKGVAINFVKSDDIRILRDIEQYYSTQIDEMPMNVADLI

[2] = molecular target: T2, Stau (tagged, expressed in HEK293 cells) (Drosophila melanogaster) (UniProt P25159)
T2 sequence: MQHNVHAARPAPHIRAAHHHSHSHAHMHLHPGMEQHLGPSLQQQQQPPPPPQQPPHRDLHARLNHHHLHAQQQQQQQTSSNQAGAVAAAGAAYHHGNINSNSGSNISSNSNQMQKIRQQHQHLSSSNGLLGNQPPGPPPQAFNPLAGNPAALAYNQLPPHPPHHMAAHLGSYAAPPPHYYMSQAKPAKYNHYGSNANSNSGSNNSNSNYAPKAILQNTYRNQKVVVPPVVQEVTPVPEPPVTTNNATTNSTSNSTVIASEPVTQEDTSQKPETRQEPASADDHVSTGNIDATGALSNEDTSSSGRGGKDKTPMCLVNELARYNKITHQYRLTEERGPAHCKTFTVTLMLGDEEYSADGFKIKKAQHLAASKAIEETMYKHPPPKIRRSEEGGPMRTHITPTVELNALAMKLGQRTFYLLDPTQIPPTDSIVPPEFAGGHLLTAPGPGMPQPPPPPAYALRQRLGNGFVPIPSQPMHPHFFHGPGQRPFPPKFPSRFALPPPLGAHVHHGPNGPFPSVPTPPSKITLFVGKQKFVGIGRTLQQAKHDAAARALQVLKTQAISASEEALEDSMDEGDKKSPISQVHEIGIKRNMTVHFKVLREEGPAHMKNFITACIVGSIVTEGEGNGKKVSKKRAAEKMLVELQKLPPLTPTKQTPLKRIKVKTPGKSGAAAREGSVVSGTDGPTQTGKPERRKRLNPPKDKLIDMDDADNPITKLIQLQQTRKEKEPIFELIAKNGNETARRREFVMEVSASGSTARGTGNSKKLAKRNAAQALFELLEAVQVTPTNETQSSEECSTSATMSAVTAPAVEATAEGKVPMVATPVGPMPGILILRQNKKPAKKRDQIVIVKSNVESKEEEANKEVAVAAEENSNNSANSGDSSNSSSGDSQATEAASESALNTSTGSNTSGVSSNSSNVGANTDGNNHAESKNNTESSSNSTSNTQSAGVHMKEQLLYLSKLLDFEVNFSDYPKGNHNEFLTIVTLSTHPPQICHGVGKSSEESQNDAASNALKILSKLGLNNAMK

[3] = molecular target: eIF4AIII (tagged, expressed in HEK293 cells) (Drosophila melanogaster) (UniProt Q9VHS8)

binding [1]: binds
B1: BicaudalC (tagged, expressed in HEK293 cells) (protein, UniProt Q24009 1-905)
chain: MLSCASFNKLMYPSAADVAKPPMVGLEVEAGSIGSLSSLHALPSTTSVGSGAPSETQSEISSVDSDWSDIRAIAMKLGVQNPDDLHTERFKVDRQKLEQLIKAESSIEGMNGAEYFFHDIMNTTDTYVSWPCRLKIGAKSKKDPHVRIVGKVDQVQRAKERILSSLDSRGTRVIMKMDVSYTDHSYIIGRGGNNIKRIMDDTHTHIHFPDSNRSNPTEKSNQVSLCGSLEGVERARALVRLSTPLLISFEMPVMGPNKPQPDHETPYIKMIETKFNVQVIFSTRPKLHTSLVLVKGSEKESAQVRDATQLLINFACESIASQILVNVQMEISPQHHEIVKGKNNVNLLSIMERTQTKIIFPDLSDMNVKPLKKSQVTISGRIDDVYLARQQLLGNLPVALIFDFPDNHNDASEIMSLNTKYGVYITLRQKQRQSTLAIVVKGVEKFIDKIYEARQEILRLATPFVKPEIPDYYFMPKDKDLNLAYRTQLTALLAGYVDSPKTPSLLPPSLAGQLTPYANNNHLLLNANGLATPTGVCAPTQKYMQLHNSFQQAQNRSMVAGGQSNNGNYLQVPGAVAPPLKPPTVSPRNSCSQNTSGYQSFSSSTTSLEQSYPPYAQLPGTVSSTSSSTAGSQNRAHYSPDSTYGSEGGGVGGGGGGGARLGRRLSDGVLLGLSNSNGGGGNSGGAHLLPGSAESYRSLHYDLGGNKHSGHRAFDFDMKRALGYKAMERTPVAGELRTPTTAWMGMGLSSTSPAPAPLENGENGAAGGGASSGWRLPPGLGSPYGLSATTGLLDATPVNRRMQLAKHKDIQTLLTSLGLEHYIKIFVLNEIDLEVFTTLTEENLMELGIAAFGARKKLLTAIHTLLANEAACSTMPSSSSSQNSSSPRFSGSAAPGAERRPSNQW

binding [2]: binds
B2: Loqs (tagged, expressed in HEK293 cells) (protein, UniProt Q9VJY9 1-465)
chain: MDQENFHGSSLPQQLQNLHIQPQQASPNPVQTGFAPRRHYNNLVGLGNGNAVSGSPVKGAPLGQRHVKLKKEKISAQVAQLSQPGQLQLSDVGDPALAGGSGLQGGVGLMGVILPSDEALKFVSETDANGLAMKTPVSILQELLSRRGITPGYELVQIEGAIHEPTFRFRVSFKDKDTPFTAMGAGRSKKEAKHAAARALIDKLIGAQLPESPSSSAGPSVTGLTVAGSGGDGNANATGGGDASDKTVGNPIGWLQEMCMQRRWPPPSYETETEVGLPHERLFTIACSILNYREMGKGKSKKIAKRLAAHRMWMRLQETPIDSGKISDSICGELEGEPRSSENYYGELKDISVPTLTTQHSNKVSQFHKTLKNATGKKLLKLQKTCLKNNKIDYIKLLGEIATENQFEVTYVDIEEKTFSGQFQCLVQLSTLPVGVCHGSGPTAADAQRHAAQNALEYLKIMTKK

binding [2]: binds
binding [3]: binds
B3: Hfp (tagged, expressed in HEK293 cells) (protein, UniProt Q8T6B9 1-637)
chain: MGSNDRASRSPRSDDQREISDMPATKRTRSDSGKSTDSKIPYLSQPLYDLKQTGDVKFGPGTRSALLGLLGGALPKLSSEQHDLVSKAKKYAMEQSIKMVLMKQTLAHQQQQLATQRTQVQRQQALALMCRVYVGSISFELKEDTIRVAFTPFGPIKSINMSWDPITQKHKGFAFVEYEIPEGAQLALEQMNGALMGGRNIKVGRPSNMPQAQQVIDEVQEEAKSFNRIYVASIHPDLSEEDIKSVFEAFGPILYCKLAQGTSLHTHKGYGFIEYANKQAMDEAIASMNLFDLGGQLLRVGRSITPPNALACPTTNSTMPTAAAVAAAAATAKIQALDAVASNAVLGLSQNTPVMAAGAVVTKVGAMPVVSAATSAAALHPALAQAAPALLPPGIFQAPTPVAPSLLGVPAGLQPLQAVVPTLPPPALLATPTLPMTVGGVGVGLVPTVATLAGAEASKGAAAAAALSAAANNAAVTAANLSENIKKAHEKQQEELQKKLMDEGDVQTLQQQENMSIKGQSARQLVMQRLMRPVDSRVIILRNMVGPEDVDETLQEEIQEECSKFGTVSRVIIFNEKQTENEDDDEAEIIVKIFVEFSAGAEAMRGKEALDGRFFGGRRVVAELYDQGIFDQGDLSG
